Microarray screen: hit calls

From ROBIN, a set of small-molecule microarray screens (doi:10.1002/anie.202211358).

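Compounds were printed on reactive glass slides in duplicate spots, a dye-labelled oligonucleotide was laid over them, and the fluorescence left after washing was read. For the PreQ1, TPP and SAM-II riboswitches the laboratory earlier reported (doi:10.1038/s41467-019-09493-3) 1 µM RNA, 2 h, and a rule that included a mean Z-score above 3 (spot signal-to-noise against the whole library), a score well above that on a control array, and duplicate spots agreeing (coefficient of variation under 100). The data file gives only the calls; its cut-offs may differ, and compounds hitting several targets are kept. A missing hit is not proof of no binding, and a hit is not a measured affinity.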
Key: active = hit, inactive = tested without a hit.
The compounds are a random part of those screened.
A target missing from an entry has no call listed here.

Oligonucleotides screened, 5′ to 3′:
TPP: TPP riboswitch RNA three-way junction, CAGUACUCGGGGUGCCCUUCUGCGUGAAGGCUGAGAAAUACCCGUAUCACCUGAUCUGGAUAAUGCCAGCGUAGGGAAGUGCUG. About 160 hits among about 24,000 compounds.
SAM-II: SAM-II riboswitch RNA pseudoknot, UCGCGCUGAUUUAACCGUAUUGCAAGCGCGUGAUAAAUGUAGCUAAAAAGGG. About 200 hits among about 21,000 compounds.
PreQ1: PreQ1 riboswitch RNA pseudoknot, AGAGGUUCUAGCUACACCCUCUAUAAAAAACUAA. From B. subtilis. About 170 hits among about 24,000 compounds.

- Cc1ccccc1Cn1c(CCNC(=O)CCC(C)O)nc2ccccc21 (centres undefined) | TPP: inactive; PreQ1: inactive
- CCOC(=O)N1CCN(c2ncnc3sc4c(c23)CCNC4)CC1 | TPP: inactive; SAM-II: inactive; PreQ1: inactive
- O=c1c(O)c(-c2ccc(O)cc2O)oc2cc(O)cc(O)c12 | TPP: inactive; SAM-II: inactive; PreQ1: inactive
- CCOc1ccc(Cl)cc1CNCCSc1nnnn1C | TPP: inactive; SAM-II: inactive; PreQ1: inactive
- O=C(NCCNc1cccnc1)C1CCCN(C2CCN(C(=O)C3CC3)CC2)C1 (centres undefined) | TPP: inactive; SAM-II: inactive; PreQ1: inactive
- Cc1oc(C(C)C)cc1C(=O)N1C[C@@H](CN2C[C@@H](C)O[C@@H](C)C2)[C@@H](CO)C1 | TPP: inactive; SAM-II: inactive; PreQ1: inactive
- CN1CC2(CCNCC2)CC1C(=O)NCC1(COc2ccccc2)CC1 (centres undefined) | TPP: inactive; SAM-II: inactive; PreQ1: inactive
- Cc1cc(C)n(CC(=O)N2CCC(C(O)Cc3ccccc3)CC2)c(=O)n1 (centres undefined) | TPP: inactive; SAM-II: inactive; PreQ1: inactive
- COc1nccc(-c2c(-c3ccc(F)cc3)ncn2C2CCC(O)CC2)n1 (centres undefined) | TPP: inactive; SAM-II: inactive; PreQ1: inactive
- CC(C)[C@]1(O)CN(c2nc3ccccc3n2CCO)C[C@H]1C | TPP: inactive; SAM-II: inactive; PreQ1: inactive
- CCCc1c(C(=O)NCCO)nnn1-c1ccc(Cl)cc1 | TPP: inactive; PreQ1: inactive
- Cc1ccccc1-c1noc(CNCCc2c[nH]c3c(C)cccc23)n1 | TPP: inactive; SAM-II: inactive; PreQ1: inactive
- C=CCn1c(-c2nonc2N)nc2ccccc21 | TPP: inactive; SAM-II: inactive; PreQ1: inactive
- O=C1NC(=O)C(Cc2ccccc2)(c2cccnc2)N1 (centres undefined) | TPP: inactive; SAM-II: inactive; PreQ1: inactive
- COCc1nc2ccccc2n1CC(O)COc1ccc(C)cc1C (centres undefined) | TPP: inactive; PreQ1: inactive
- CCc1cccc(Nc2cc(C)nc3nc(C)nn23)c1 | TPP: inactive; SAM-II: inactive; PreQ1: inactive
- CC(C)CNc1cc(-c2ccccc2)nc2nc(-c3cccnc3)nn12 | TPP: inactive; PreQ1: inactive
- Cc1cc(C2C(C#N)=C(N)N(c3ccccc3F)C3=C2C(=O)CCC3)c(C)s1 (centres undefined) | TPP: inactive; SAM-II: inactive; PreQ1: inactive
- O=C(c1c[nH]c2ccccc12)N1CC[C@@H](c2ccc3c(c2)OCO3)[C@H](O)C1 | TPP: inactive; SAM-II: inactive; PreQ1: inactive
- O=c1ccc2ccc(O)c(O)c2o1 | TPP: inactive; SAM-II: inactive; PreQ1: inactive
- COCCOC(=O)C1=C(N)Oc2c(oc(CO)cc2=O)C1c1cccc(F)c1 (centres undefined) | TPP: inactive; SAM-II: inactive; PreQ1: inactive
- Cc1n[nH]c2c1C(c1ccc3c(c1)OCO3)C(C#N)=C(N)O2 (centres undefined) | TPP: inactive; SAM-II: inactive; PreQ1: inactive
- CCOc1cc(CNCCc2c[nH]c3ccccc23)cc(Cl)c1OCC(N)=O | TPP: inactive; SAM-II: inactive; PreQ1: inactive
- O=C([O-])C(O)Cc1ccc(O)c(O)c1 (centres undefined) | TPP: inactive; SAM-II: inactive; PreQ1: inactive
- Cc1ccc(NC(=O)c2c(N)sc3c2CCCC3)cc1C | TPP: inactive; SAM-II: inactive; PreQ1: inactive
- O=C(Cc1ccccn1)N1CCC(Cc2ccc(CO)cc2)C1 (centres undefined) | TPP: inactive; SAM-II: inactive; PreQ1: inactive
- CCOC(=O)c1cnn(-c2ccc(C(=O)Nc3ccc(Br)cc3)cn2)c1N | TPP: inactive; SAM-II: inactive; PreQ1: inactive
- Cc1cccc2[nH]c(C3CCN(c4cc(N)ncn4)CC3)nc12 | TPP: inactive; SAM-II: inactive; PreQ1: inactive
- COc1ccccc1Oc1ccccc1NC(=O)N1CCC(O)CC1 | TPP: inactive; SAM-II: inactive; PreQ1: inactive
- Cc1ccc(C(C)(C)CC(C)NCCc2ccc(Cl)cc2)o1 (centres undefined) | TPP: inactive; SAM-II: inactive; PreQ1: inactive
- Cc1oc(C(C)(C)C)cc1C(=O)NCCO | TPP: inactive; SAM-II: inactive; PreQ1: inactive
- COc1ccc(-c2cc(-c3ccccc3)c(-c3ccccc3)nn2)cc1 | TPP: inactive; SAM-II: inactive; PreQ1: inactive
- COc1ccc(CNc2ncnc3scc(-c4ccc(Cl)cc4)c23)cc1 | TPP: inactive; PreQ1: inactive
- O=C1C=C(NCCc2c[nH]cn2)CCC1 | TPP: inactive; SAM-II: inactive; PreQ1: inactive
- COc1ccc2c(c1)CC(NCCOc1ccccc1F)CC2 (centres undefined) | TPP: inactive; SAM-II: inactive; PreQ1: inactive
- C=CCc1c(C)nc(N)nc1N1CCC2(CCOCC2)CC1 | TPP: inactive; SAM-II: inactive; PreQ1: inactive
- N#C/C(=C\c1ccc[nH]1)C(=O)c1ccccc1 | TPP: inactive; SAM-II: inactive; PreQ1: inactive
- COc1cc(CNc2nccs2)cc(Br)c1OCc1ccc(F)cc1 | TPP: inactive; SAM-II: inactive; PreQ1: inactive
- CCOc1ccccc1NC(=O)c1nnn(-c2cccc(C(F)(F)F)c2)c1N | TPP: inactive; SAM-II: inactive; PreQ1: inactive